Source: the supplement of paper PMC4683952
Some of the results follow. No stated cut-off is given here; in the data, active = 2 or more and inactive = the rest. Most values lie within the scatter of the assay; repeated measurements hardly agree.

test system: Lgr5 (MarsCy1-Lgr5-EGFP, U2OS); assay: cell-surface Lgr5 expression (SCi1 fluorescence, background-subtracted) relative to WT DMSO (fold of DMSO control); higher = more Lgr5 at the plasma membrane; settings: U2OS MarsCy1-Lgr5-EGFP stable; treatment time: overnight; library: ActiProbe-5K (TimTec); 25 µM

cell-surface Lgr5 expression, inactive:
c1ccc2c(c1)ncn2CCn1cnc2ccccc21 1.14, c1ccc2nc3c(nc2c1)[nH]c1ccccc13 1.04, C=CCC(N)(CC=C)C1=C[C@H](CC(=C)C)N[C@@H](CC(=C)C)C1 1.11, COCCOC(=O)C1=C(C)NC(=O)NC1C1CC=CCC1 (stereo not given) 1.02, N#CCc1nc(-c2cccs2)cs1 1.4, NC(=O)c1c(NC(=O)C2CC2)sc2c1CCCC2 1.23, Nc1ccc(S(=O)(=O)NC2=NCCC2)cc1 1.04, Cc1ccc(/C=N/n2c(C)nnc2C)s1 1.41, COCn1nnc(-c2ccccn2)n1 0.978, O=C(CN1CCOCC1)NCCCCCNC(=O)CN1CCOCC1 1.18, CCOc1cc(S(=O)(=O)N2CCN=C2C)ccc1F 0.839, O=c1[nH]nc2c3c(cccc13)-c1ccccc1-2 1.27, Cn1c(-c2ccc(Cl)cc2Cl)n[nH]c1=S 1.31, Sc1nnc(C2CCCCC2)n1/N=C\C=C/c1ccco1 0.844, Fc1ccc(-c2cc(-c3nnc4sc(-c5cccs5)nn34)[nH]n2)cc1 1.14, C1(C(C2=NC([C@](C)(C)C)CO2)(C)C)=NC([C@](C)(C)C)CO1 (stereo not given) 1.38, Nc1nc(N)c2nc(CO)cnc2n1 0.833, O=S(=O)(OC1CCCN2CCCCC12)c1ccccc1 (stereo not given) 1.28, Clc1ccc2c(SSc3ccnc4cc(Cl)ccc34)ccnc2c1 1.16, CC12CC3CC(C)(C1)CC(CC(=O)NN)(C3)C2 1.12, OCC1OC(Nc2ccc(Cl)cc2)CC1O (stereo not given) 0.996, O=C/C(=C\O)c1ccncn1 1.26, Cn1cc(Cn2cc(N)cn2)cn1 1.28, O=C1CCCC1CCCCCCCCCCCO (stereo not given) 1.37, Cc1ccccc1-c1nnc2n1N=C(c1ccc3c(c1)OCO3)CS2 1.17, N#Cc1cc(C#N)c(=S)[nH]c1N 1.19, NC1=NC2=C(c3ccccc3)C(=O)CN2c2ccccc21 1.02, C1(=C(N2CCCC2)CCCC1)/C=C(\C#N)C#N 0.771, CC(=O)Nc1nonc1N1C(=N)SCC1=O 0.963, Cc1cc(C)c(CSc2nnc(C)s2)c(C)c1 1.28, O=c1[nH]c2cc[nH]c(=O)c2[nH]1 1.11, CC(C)CC(=O)NCC1CCCO1 (stereo not given) 1.16, COc1ccc(/C=N\NS(C)(=O)=O)cc1OC 1.25, Brc1cnc2nc3[nH]c4ccc(Br)cc4c3nc2c1 1.45, Cc1cc(=O)[nH]c(S)c1C#N 1.33, CCCCCC1NC(=O)NC1CCCCCC(=O)O (stereo not given) 1.57, Cc1ccc(/C=N\Nc2nncn2/N=C/c2ccc(C)o2)o1 1.13, O=c1[nH][nH]c(=O)n1-c1ccc2c(c1)OCO2 1.1, COC(=O)CCCCc1scc2[nH]c(=O)[nH]c12 1.38, COCn1nnc(-c2ccc(Cl)cc2)n1 1.02, CC(CNS(C)(=O)=O)OC12CC3CC(CC(C3)C1)C2 (stereo not given) 1.29, CS/C(=N/C#N)Nc1ccc(OC(F)F)cc1 1.17, CC(C)(C)S(=O)(=O)c1ccc(S(=O)(=O)C(C)(C)C)cc1 1.16, Cc1cc(C)nc(NS(=O)(=O)c2cc(Cl)ccc2Cl)n1 1.22, Fc1ccc(NC(=S)Nc2ccc(Br)cc2)cc1 0.855, Cc1cc(C(=O)O)c(CSCc2cc(C(=O)O)oc2C)o1 1.21, COc1cc(N)ccc1-n1cnnn1 1.06, S=c1sc2c(N3CCc4ccccc43)ncnc2n1-c1ccccc1 1.12, O=S(=O)(c1ccc(Br)cc1)N1CCCC1 1.39, Cc1cc(/C=N\O)c(S(C)(=O)=O)s1 1.15, O=C(CCCC(=O)Nc1nccs1)Nc1nccs1 0.984, CC(C)(C)OC(=O)NC1(C(=O)O)CCN(C(=O)OC(C)(C)C)CC1 1.2, O=c1nc(O)c(O)cn1C1OC(CO)C(O)C1O (stereo not given) 0.785, FC(F)(F)Oc1ccc(-n2cccn2)cc1 1.17, COc1ccc(S(N)(=O)=O)cc1OC 1.01, CCC(CC)C(=O)Nc1nnc(C(C)C)s1 1.44, CN1CCN(C(=O)c2nonc2N)CC1 1.15, c1(/[nH]c2ccccc2[nH]1)=N/n1cnnc1 1.28, O=C(O)Cc1nc2[nH]c3c(c(=O)n2n1)CCCC3 1.25, C=CCN(CC=C)C(=O)C(CC)CCCC (stereo not given) 1.09, O=c1[nH]nnc2ccc(Br)cc12 0.933, O=c1[nH]c2ccccc2c([O-])c1-[n+]1ccccc1 0.981, O=S(=O)(c1ccc(-n2cnnn2)cc1)c1ccc(-n2cnnn2)cc1 1.28, N#Cc1c(NC(=O)CCC2CCCC2)sc2c1CCCCCC2 1.13, Nc1cccc[n+]1Cc1ccccn1.[Br-] 1.22, O=[N+]([O-])c1cc(Br)c2nsnc2c1Br 0.449, c1ccc(-c2nnc(SC3CCCC3)nc2-c2ccccc2)cc1 0.831, CC/C(=C\c1sc2ccc(C)cc2[n+]1CCO)SC 1.5, Nc1nonc1-c1noc(-c2cccnc2O)n1 0.946, N#CC1=C(N)SC(N)=C(C#N)C1c1cc(Br)ccc1F 1.39, c1ccc(Oc2nc(Oc3ccccc3)nc(Oc3ccccc3)n2)cc1 0.973, O=C(O)C1CCS(=O)(=O)C1 (stereo not given) 1.16, Cc1cn2nc([N+](=O)[O-])cc2c(=O)o1 1.14, COc1ccc(S(=O)(=O)c2cc(O)ccc2O)cc1 1.17, CC12C=CC(C)(O1)C1C(=O)NC(=O)C12 (stereo not given) 1.33, O=[N+]([O-])c1ccc2c(c1)C1C=CCC1C(c1ccc(F)cc1)N2 (stereo not given) 0.513, Oc1ncnc2c1sc(=S)n2-c1ccccc1 1.19, Cc1cc(C)c(Cc2c(C)c(/C=N\O)c(C)c(Cc3c(C)cc(C)c(/C=N\O)c3C)c2C)c(C)c1/C=N\O 0.699, COc1ccc(-c2c[nH]c(=N)s2)cc1 1.11, c1ccc(C([C@@H]2[C@H]([C@]([C@@H]3(N2c2ccccc2C=C3))(C#N)C#N)c2c(C(F)(F)F)cccc2)=O)cc1 1.82, C/C=C\c1c(C)nc2sc(C#N)c(N)c2c1C 1.2, Oc1nc(O)c2sc3nc(C4CC4)cc(C(F)(F)F)c3c2n1 1.01, N#CC1=C(N)OC(N)=C(C#N)C1c1cc(Br)cs1 1.64, C=CC[C@H]1CC=C[C@H](C)N1.Cl 1.17, CC(C)c1cc(C(F)(F)F)nc(S[C@H]2CC(=O)[C@@H]3OC[C@H]2O3)n1 0.985, Oc1c(-c2ccccc2)c2nc3ccccc3nc2c2ccccc12 1.15, CC1(C)OC(=O)N2CCc3sccc3C21C (stereo not given) 1.3, O=c1[nH]n2cc(-n3cc([N+](=O)[O-])cn3)cnc2c1[N+](=O)[O-] 1.4, COc1ccc(Br)c2c1OCCO2 1.62, COc1ccc(OC)c(NC(=S)Nc2ccc(F)cc2)c1 0.867, Nc1ccc(N2CCCC2)c(C(F)(F)F)c1 1.22, O=S(=O)(Nc1nc2ccccc2nc1Cl)c1ccccc1 1.06, c1ccc2[nH]c(CCn3c4c(c5ccccc53)CCCC4)nc2c1 0.914, CC(C)(C)NS(=O)(=O)c1ccc(F)cc1 0.973, C[NH+]1CCCCC1.N#CC1=C(N)NC([S-])=C(C#N)C12CCCCC2 1.14, Oc1cc(-c2ccc3c(c2)OCO3)n[nH]1 0.937, CCN(CC)C(=O)N1CCOCC1 1.11, CC(C)c1ccc(/C=N/n2c(S)nnc2-c2ccc(C(C)(C)C)cc2)cc1 0.912, O=c1[nH]c2ccccc2n1C1=CCNCC1 1.05, CC(/C=N/n1c(S)nnc1-c1ccco1)=C\c1ccco1 1.15, Cc1ccc(/C=N\NC(=O)c2cnccn2)o1 1.02, CCCCNC(=S)N(C1CCCCC1)C1CCCCC1 1.08, CCn1nnnc1SCSc1nnnn1CC 0.964, Nc1nonc1-c1noc(CCCOc2ccc(Cl)cc2Cl)n1 1.4, O=C1NC(=S)S/C1=C/c1ccc(-c2ccc3c(c2)COC3=O)o1 1.04, CSc1nc2c(cc1C#N)CCC2 1.28, CS(=O)(=O)c1nc(/N=N\c2ccc(O)cc2)n[nH]1 1.34, Cc1cc(C)c(C)c(S(=O)(=O)n2ccnc2C(C)C)c1C 1.13, O=C1CS/C(=N/c2ccccc2)N1c1ccccc1 1.26, [C-]#[N+]c1ccc(Cl)cc1C(C)S(=O)(=O)c1ccc(C)cc1 (stereo not given) 0.895
